Patent publication US6136781A (Takeda Chemical Industries, Ltd., priority 1995, dated 2000)
Square brackets hold non-standard residues; d marks the D form. * marks the point of attachment. Phe(4-Cl) = N[C@@H](Cc1ccc(Cl)cc1)C(=O)O; Phe(4-F) = N[C@@H](Cc1ccc(F)cc1)C(=O)O; 2Nal = N[C@@H](Cc1ccc2ccccc2c1)C(=O)O; Fmoc = O=C(OCC1c2ccccc2-c2ccccc21)*; Mtr = COc1cc(C)c(S(=O)(=O)*)c(C)c1C; Phg = N[C@H](C(=O)O)c1ccccc1; Tos = Cc1ccc(S(=O)(=O)*)cc1; BrZ = O=C(OCc1ccccc1Br)*; OPac = O=C(CO*)c1ccccc1; Boc = CC(C)(C)OC(=O)*

experiment: peptide synthesis; details: whole synthesis, scale 0.25 mmol

Substance | crude mass
Fmoc-[dA]WF[dR](Mtr)F-OH | 96 mg

experiment: solution-phase peptide synthesis; DCC/HONB (ONB active esters); details: coupling step

Substance | step yield
Boc-D-Arg(Tos)-Lys(SO2 Nap(1))-D-Tyr(Br-Z)-Trp-Leu-OPac | 74.0%
Boc-PY(BrZ)[dW]LR(Tos)-OPac | 85.9%
Boc-WPY(BrZ)[dW]LR(Tos)-OPac | 82.8%

experiment: Boc solid-phase peptide synthesis; DCC/HONB (ONB active esters); details: whole synthesis

Substance | crude yield
cyclo([Phe(4-Cl)]R(Tos)[2Nal][dA]W) | 59.1%
cyclo([Phe(4-Cl)][dR](Tos)[2Nal][dA]W) | 92.8%

experiment: general procedure: solution-phase peptide synthesis; DCC/HONB (ONB active esters); details: cyclisation step

Substance | cyclisation yield
cyclo(F[dR](Tos)F[dW]W) | 83.0%
cyclo(F[dR](Tos)[Phe(4-Cl)][dA]W) | 50.5%
cyclo(F[dR](Tos)[Phe(4-F)][dA]W) | 65.6%
cyclo(R[dK](Ac)Y[dW]L) | 23.9%
cyclo(R[dK]Y[dW]L) | 11.7%
cyclo(R[dW]Y[dW]L) | 11.5%
cyclo(Y[dW]LRWP) | 15.3%
cyclo([Phe(4-Cl)][dR](Tos)F[dA]W) | 7.5%
cyclo([Phe(4-F)][dR](Tos)F[dA]W) | 58.8%
cyclo([Phg][dR](Tos)F[dS]W) | 15.7%

same assay, conditions: late stage modification step

Substance | step yield
cyclo(F[dR][2Nal][dA]W) | 39.0%
cyclo([Phe(4-Cl)]R[2Nal][dA]W) | 37%
cyclo([Phe(4-Cl)][dR]F[dA]W) | 21.5%
cyclo([Phe(4-Cl)][dR][2Nal][dA]W) | 39%

same assay, conditions: whole synthesis

Substance | crude yield
Fmoc-[dA]WF[dR](Mtr)F-OH | 82.8%
